How the values were obtained:
U4U6 RNA = experiment: SHAPE-MaP structure probing; set-up: species or system yeast; details: 100 μM compound vs DMSO
U4/U6 92 nt RNA = experiment: CD thermal melting assay of U4/U6 RNA; set-up: species or system yeast

| SMILES | effect on RNA structure by SHAPE reactivity (U4U6 RNA) | effect on RNA thermodynamic stability (CD melting) (U4/U6 92 nt RNA) | ΔTm (U4/U6 92 nt RNA; 5 μM RNA with 100 μM compound vs DMSO) |
| --- | --- | --- | --- |
| Cc1ccc(-n2ncc3c(NCCCN(C)C)ncnc32)cc1Cl [Compound 1] | clear destabilization effect | destabilization | – |
| CCc1nnc(-c2nnc(NCCCN(C)C)c3ccccc23)o1 [Compound 2] | – | stabilization | +3.3 ± 0.3 °C |
| CN(C)CCNc1nnc(-c2nc(-c3ccc(F)cc3)no2)c2ccccc12 [Compound 22] | overall stabilization | – | – |
